The experiment concerns BDF1 mice, L1210/MTX-resistant leukemia ip, survival T/C. In words: NCI In Vivo Anticancer Drug Screen. Data for tumor model L1210 Leukemia resistant to Methotrexate; NSC 740 (intraperitoneal) in B6D2F1 (BDF1) mice. To be noted: T/C endpoint: mean survival time, higher T/C = longer survival. Here is the method:
The antitumor activity of compounds was measured in mice bearing transplantable tumors. Survival or tumor size were measured and the results are expressed as the measurement made in the treated group (T) divided by the measurement made in the vehicle treated control group (C). The tumor model used in this assay is L1210 Leukemia resistant to Methotrexate; NSC 740 (intraperitoneal) in B6D2F1 (BDF1) mice

Setting [1] is: dose: 0.25 mg/kg/injection, schedule: Q01DX Z (ip), vehicle: saline.
Where [2] appears, read: dose: 0.5 mg/kg/injection, schedule: Q01DX Z (ip), vehicle: saline.
[3] abbreviates: dose: 1.0 mg/kg/injection, schedule: Q01DX Z (ip), vehicle: saline.
[4] abbreviates: dose: 125.0 mg/kg/injection, schedule: Q01DX Z (ip), vehicle: saline.
Setting [5] is: dose: 250.0 mg/kg/injection, schedule: Q01DX Z (ip), vehicle: saline.
Where [6] appears, read: dose: 500.0 mg/kg/injection, schedule: Q01DX Z (ip), vehicle: saline.
The mark [7] stands for this setting: dose: 1000.0 mg/kg/injection, schedule: Q01DX Z (ip), vehicle: saline.
Setting [8] is: dose: 12.5 mg/kg/injection, schedule: Q01DX010 (sc), vehicle: steroid suspending solution.
Where [9] appears, read: dose: 100.0 mg/kg/injection, schedule: Q01DX010 (sc), vehicle: steroid suspending solution.

Our source for the survivor count and T/C values is PubChem BioAssay AID284 (DTP/NCI, 2004).

The list does not hold the whole screen: it is rich in T/C values a quarter to a half above the control, in often repeated tests (any T/C) and in doses without a T/C. Other doses and runs of a compound stand elsewhere. T/C: endpoint of the treated group in % of that of the vehicle group. Some entries give survivors of the animals treated and no T/C: the source holds a T/C of zero for them, seemingly a mark for toxic or unscored doses. Some survivor counts are full or nearly so, which does not show that the dose was tolerated: survival well below the control is almost never listed, so the zero probably covers shortened survival too. Survivors were counted at the toxicity check, usually on the fifth day, unless a day is given; later deaths do not show. Schedules are NCI's codes, read here as Q, the interval in days (D) or hours (H), X, the number of doses. Some schedules carry Z or #; the key to these is not given. Some entries were tested several times; their values stand side by side, smallest first. Where survival is the endpoint, this PubChem deposit counts one and a half times the control or more as active, and values a quarter to a half above the control carry no call in these data; other NCI protocols may use other cut-offs. Some T/C values carry the count of animals alive at the toxicity check (mostly the fifth day); without a count, all were alive then.

As to `C[C@]12CCC(=O)C=C1CC[C@@H]1[C@@H]2C(=O)C[C@@]2(C)[C@H]1CC[C@]2(O)C(=O)CO`, the survivor count reads like this: (dose: 100.0 mg/kg/injection, schedule: Q01DX Z (sc), vehicle: steroid suspending solution) 7 of 7; (dose: 125.0 mg/kg/injection, schedule: Q01DX Z (sc), vehicle: steroid suspending solution) 6 of 6; (dose: 200.0 mg/kg/injection, schedule: Q01DX Z (sc), vehicle: steroid suspending solution) 6 of 6 and 7 of 7; (dose: 250.0 mg/kg/injection, schedule: Q01DX Z (sc), vehicle: steroid suspending solution) 6 of 6; (dose: 400.0 mg/kg/injection, schedule: Q01DX Z (sc), vehicle: steroid suspending solution) 6 of 6 and 7 of 7; (dose: 500.0 mg/kg/injection, schedule: Q01DX Z (sc), vehicle: steroid suspending solution) 6 of 6.
With `Cc1cc(N(CCCl)CCCl)ccc1N=Nc1ccccc1C(=O)O`, the survivor count (dose: 1.5 mg/kg/injection, schedule: Q01DX Z (ip), vehicle: carboxymethylcellulose (CMC)) is reported as 6 of 6; the survivor count (dose: 15.0 mg/kg/injection, schedule: Q01DX Z (ip), vehicle: carboxymethylcellulose (CMC)) is on record as 5 of 6; the survivor count (dose: 20.0 mg/kg/injection, schedule: Q01DX Z (ip), vehicle: carboxymethylcellulose (CMC)) was 6 of 6; the survivor count (dose: 30.0 mg/kg/injection, schedule: Q01DX Z (ip), vehicle: carboxymethylcellulose (CMC)) was 6 of 6; the survivor count (dose: 37.5 mg/kg/injection, schedule: Q01DX Z (ip), vehicle: carboxymethylcellulose (CMC)) is on record as 6 of 6; the survivor count (dose: 40.0 mg/kg/injection, schedule: Q01DX010 (ip), vehicle: saline) is reported as 6 of 6. Moreover, the survivor count by setting is: (dose: 50.0 mg/kg/injection, schedule: Q01DX Z (ip), vehicle: carboxymethylcellulose (CMC)) 6 of 6; (dose: 75.0 mg/kg/injection, schedule: Q01DX Z (ip), vehicle: carboxymethylcellulose (CMC)) 5 of 6; (dose: 100.0 mg/kg/injection, schedule: Q01DX Z (ip), vehicle: carboxymethylcellulose (CMC)) 5 of 6. Further, under “dose: 2.0 mg/kg/injection, schedule: Q01DX Z (ip), vehicle: carboxymethylcellulose (CMC)”, the T/C is 128 % of control.
For the compound `Cn1cnc([N+](=O)[O-])c1Sc1nc(N)nc2nc[nH]c12`, the T/C is 131 % of control (dose: 2.0 mg/kg/injection, schedule: Q01DX Z (ip), vehicle: methylcellulose (MC)) and 134 % of control (dose: 4.0 mg/kg/injection, schedule: Q01DX Z (ip), vehicle: methylcellulose (MC)). Also, the survivor count (dose: 8.0 mg/kg/injection, schedule: Q01DX Z (ip), vehicle: methylcellulose (MC)) is listed as 6 of 6.
Turning to `C[n+]1c2ccccc2nc2c(N)cc(N)cc21`, the survivor count (dose: 27.0 mg/kg/injection, schedule: Q01DX010 (ip), vehicle: saline) is reported as 3 of 6.
Turning to `C1CN1c1nc(N2CC2)nc(N2CC2)n1`, the T/C under setting [1] is 132 and 140 % of control; the T/C under setting [2] is 86, 88, 101 % of control; the T/C under setting [3] was 102 and 103 % of control; the T/C (dose: 125.0 micrograms/kg/injection, schedule: Q01DX Z (ip), vehicle: saline) was 126 % of control; the T/C (dose: 250.0 micrograms/kg/injection, schedule: Q01DX Z (ip), vehicle: saline) is 132 % of control [5 of 6 alive]. Further, the survivor count was 6 of 6 under setting [1]; 1 of 6 and 3 of 6 under setting [2]; 0 of 6 and 6 of 6 under setting [3]; 6 of 6 (dose: 63.0 micrograms/kg/injection, schedule: Q01DX Z (ip), vehicle: saline).
As for `CCOC(N)=O`, the T/C reads like this: under setting [4], 129 % of control; under setting [5], 137 % of control; under setting [6], 86, 113, 137 % of control; under setting [7], 86 and 140 % of control. In addition, the survivor count was 6 of 6 under setting [4]; 6 of 6 (dose: 188.0 mg/kg/injection, schedule: Q01DX Z (ip), vehicle: saline); 6 of 6 (dose: 250.0 mg/kg/injection, schedule: Q01DX010 (ip), vehicle: saline); 6 of 6 under setting [5]; 6 of 6 (dose: 375.0 mg/kg/injection, schedule: Q01DX Z (ip), vehicle: saline); 6 of 6 under setting [6]. Also, the survivor count (dose: 750.0 mg/kg/injection, schedule: Q01DX Z (ip), vehicle: saline) is listed as 6 of 6 and the survivor count under setting [7] is 6 of 6.
With `CC1CCOS(=O)O1` (centres undefined), the survivor count (dose: 80.0 mg/kg/injection, schedule: Q01DX010 (ip), vehicle: saline) was 6 of 6.
Take `C[C@H](N)C(=O)N[C@@H]1[C@H]2C(=C(O)C[C@@H](O)[C@@H]2O)C(=O)O[C@@H]1C`: the T/C is, setting by setting: (dose: 300.0 mg/kg/injection, schedule: Q01DX Z (ip), vehicle: saline) 132 and 149 % of control; under setting [6], 138 % of control [5 of 6 alive].
Consider `CN(C)c1ccc(/C=C\c2ccnc3ccccc23)cc1`, for which the survivor count (dose: 12.0 mg/kg/injection, schedule: Q01DX010 (ip), vehicle: saline) is reported as 6 of 6.
For the compound `C[C@]12C=CC(=O)C=C1CC[C@@H]1[C@@H]2C(=O)C[C@@]2(C)[C@H]1CC[C@]2(O)C(=O)CO`, the survivor count is, setting by setting: under setting [8], 6 of 6; (dose: 50.0 mg/kg/injection, schedule: Q01DX010 (sc), vehicle: steroid suspending solution) 6 of 6; under setting [9], 6 of 6; (dose: 200.0 mg/kg/injection, schedule: Q01DX010 (sc), vehicle: steroid suspending solution) 5 of 6.
In the case of `C[C@@H]1C[C@H]2CC[C@H](O2)[C@H](C)C(=O)O[C@@H](C)C[C@@H]2CC[C@@H](O2)[C@@H](C)C(=O)O[C@H](C)C[C@H]2CC[C@H](O2)[C@H](C)C(=O)O[C@@H](C)C[C@@H]2CC[C@@H](O2)[C@@H](C)C(=O)O1`, the survivor count runs as follows: (dose: 25.0 mg/kg/injection, schedule: Q01DX Z (ip), vehicle: methylcellulose (MC)) 5 of 6; (dose: 50.0 mg/kg/injection, schedule: Q01DX Z (ip), vehicle: methylcellulose (MC)) 5 of 6; (dose: 100.0 mg/kg/injection, schedule: Q01DX Z (ip), vehicle: methylcellulose (MC)) 4 of 6; (dose: 200.0 mg/kg/injection, schedule: Q01DX Z (ip), vehicle: methylcellulose (MC)) 3 of 6.
`CC(=O)N(C)C`: the survivor count (dose: 63.0 mg/kg/injection, schedule: Q01DX Z (ip), vehicle: methylcellulose (MC)) is on record as 5 of 6; the survivor count (dose: 125.0 mg/kg/injection, schedule: Q01DX Z (ip), vehicle: methylcellulose (MC)) is 6 of 6; the survivor count (dose: 250.0 mg/kg/injection, schedule: Q01DX Z (ip), vehicle: methylcellulose (MC)) was 5 of 6 and 6 of 6; the survivor count (dose: 500.0 mg/kg/injection, schedule: Q01DX Z (ip), vehicle: methylcellulose (MC)) was 6 of 6. For the same compound, the T/C was 125 % of control under setting [4]; 125 and 130 % of control under setting [5].
In the case of `CC(CCC(C)OS(C)(=O)=O)OS(C)(=O)=O` (centres undefined), the survivor count (dose: 25.0 mg/kg/injection, schedule: Q01DX Z (ip), vehicle: carboxymethylcellulose (CMC)) was 6 of 6.
In the case of `C[C@]12C=CC(=O)C=C1CC[C@@H]1[C@@H]2[C@@H](O)C[C@@]2(C)[C@H]1CC[C@]2(O)C(=O)CO`, the survivor count by setting is: under setting [8], 6 of 6; (dose: 25.0 mg/kg/injection, schedule: Q01DX010 (sc), vehicle: steroid suspending solution) 6 of 6; under setting [9], 6 of 6.
As for `OCC1OC(n2cnc3c(Cl)ncnc32)C(O)C1O` (centres undefined), the survivor count (dose: 500.0 mg/kg/injection, schedule: Q01DX010 (ip), vehicle: saline) is on record as 6 of 6.
